1 substance from patent publication US20240016846A1 can be followed below.

Protein sequences, listed by entry. Tags and fused reporters are not part of them. Lines headed by an entry give the natural chain unless they say otherwise; changes in a name come on top.
UniProt Q9NZQ7: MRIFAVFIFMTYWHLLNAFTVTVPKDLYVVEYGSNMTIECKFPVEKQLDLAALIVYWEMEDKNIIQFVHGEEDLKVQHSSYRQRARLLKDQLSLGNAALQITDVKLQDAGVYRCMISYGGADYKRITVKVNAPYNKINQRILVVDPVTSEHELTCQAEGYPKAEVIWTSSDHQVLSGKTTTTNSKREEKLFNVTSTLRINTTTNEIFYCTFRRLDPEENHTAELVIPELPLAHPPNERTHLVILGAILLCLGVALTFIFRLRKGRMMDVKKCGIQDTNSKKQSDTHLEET

In this assay the target is HA PD-1 chimeric cytokine receptor: HAPD1.TpoR(478-582).IL7Ra(316-459).IL12Rb2(775-825). In words: cell-binding assay, flow cytometry on HA PD-1 chimeric cytokine receptor CAR-T cells (FIG. 7A). On the technique in general: A flow cytometer gives signals particle by particle.

No constants are given. Whether binding was seen depends on the method and setting. Some entries that bind do so weakly or less than the wild type.

As to “recombinant human PD-L1-Fc (Biolegend) (from UniProt Q9NZQ7 19-238) (Fc fusion)”, the binding result is “binds”.
